Experimental data: PubChem BioAssay AID2551 (National Center for Advancing Translational Sciences (NCATS), 2010)
Values joined by “and” are separate entries in the source; they are usually repeats but may differ in a detail not shown here. Equal values may be shown once. Among all 310,000 compounds or so, about 17,000 (5.5%) were called active. Inconclusive means that the source gave no clear call. Such entries were picked first, then a sample of the others. The call rests on the fitted dose curve; in most records, active means well fitted inhibition curve with a large enough effect; inconclusive means small, poorly fitted or top-dose-only effect, or effect the other way; inactive means no such curve, though single readings can be large or run the other way. Where the call is inconclusive, the potency comes from a doubtful curve fit.

Sequences of proteins named here, by UniProt entry; tags and fusion partners are left off. A change or cut given only in a name is not applied to a line headed by its entry.
UniProt P51450: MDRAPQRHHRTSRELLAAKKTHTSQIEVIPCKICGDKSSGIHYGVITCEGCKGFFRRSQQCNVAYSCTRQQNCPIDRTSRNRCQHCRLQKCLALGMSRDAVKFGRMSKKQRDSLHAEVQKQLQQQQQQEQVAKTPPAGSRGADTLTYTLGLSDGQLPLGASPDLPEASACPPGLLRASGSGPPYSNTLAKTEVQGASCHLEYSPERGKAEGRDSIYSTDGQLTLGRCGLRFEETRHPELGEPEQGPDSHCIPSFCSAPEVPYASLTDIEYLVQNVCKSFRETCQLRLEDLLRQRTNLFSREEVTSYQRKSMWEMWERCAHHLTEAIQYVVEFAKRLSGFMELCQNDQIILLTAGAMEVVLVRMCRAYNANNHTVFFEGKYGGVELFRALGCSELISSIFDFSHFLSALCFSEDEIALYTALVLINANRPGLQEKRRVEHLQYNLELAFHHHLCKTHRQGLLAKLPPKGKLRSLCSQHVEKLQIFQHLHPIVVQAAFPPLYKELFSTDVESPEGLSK

What follows are compounds tested against Nuclear receptor ROR-gamma (Mus musculus) (UniProt P51450) (assay: qHTS for inhibitors of ROR gamma transcriptional activity). Settings: Drosophila S2 Gal4-RORgamma UAS-luciferase reporter, 20 h; activity change, negative = inhibition: at 53.6 µM (top of the series).
Outline: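 Drosophila S2 cells stably expressing Gal4-DBD/mouse RORγ fusion under metallothionein promoter plus UAS-luciferase; compound 1 h, then 700 uM CuSO4 induction for 20 h at ambient temperature; inhibition read as reduced luminescence.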
Further: nearly all actives have a fitted effect of over 60% in size.
On the % scale 0 is the no-effect control and ±100 the full control effect; potency means the concentration at half of the fitted maximal effect.

Potency, inconclusive:
COc1cc(/C=C/c2cc(C(=O)O)c3ccccc3n2)ccc1OC(F)F 3.98 µM [inhibitor, partial curve]
CCN1C(=O)OC2(CCCCC2)C1(C)O (stereo unspecified) 0.1 µM [inhibitor, single point]
COc1cccc(Oc2cn[nH]c2-c2ccc(O)cc2O)c1 14.1 µM [inhibitor, single point]
Cc1cc(NC(=O)CSc2nnc(CNc3cccc(C(F)(F)F)c3)n2Cc2ccco2)no1 25.1 µM [inhibitor, single point]
O=C(Nc1ccc2[nH]ncc2c1)c1ccc(F)cc1 3.55 µM [activator, single point]
O=S(=O)(N/N=C\c1ccc(-c2ccccc2Cl)o1)c1ccccc1 15.8 µM [inhibitor, single point]
O=C(COc1ccc(Br)cc1Cl)NC(=O)NCc1ccccc1 22.4 µM [activator, single point]
CCOc1cc(N2CCOCC2)c(OCC)cc1NC(=O)COC(=O)[C@@H]1CCCN1S(=O)(=O)c1ccccc1F 35.5 µM [inhibitor, single point]
Cc1nonc1NC(=O)CSc1nc(C2CCCCC2)nc2ccccc12 12.6 µM [inhibitor, single point]
Cc1ccc(-c2nnc(N)s2)cc1 25.1 µM [inhibitor, single point]
Cc1nc(N)sc1N=Nc1ccccc1C(F)(F)F 14.1 µM [inhibitor, partial curve]
COc1ccc(NS(=O)(=O)c2ccc(O)c(NC(=O)c3ccc(S(=O)(=O)N4CCCC4)cc3)c2)cc1 20 µM [activator, single point]
O=C(NC1CCCCC1)c1cccc(S(=O)(=O)N2CCCCC2)c1 0.447 µM [activator, partial curve]
COc1cc(/C=N/NC(=O)c2ccncc2)ccc1OC(=O)c1cccc(F)c1 35.5 µM [inhibitor, single point]
O=S(=O)(NC1CCCCCC1)c1cccc2cccnc12 11.2 µM [inhibitor, single point]
O=C(NC(O)C(=O)c1cccs1)c1cccnc1 (stereo unspecified) 35.5 µM [inhibitor, single point]
COc1cc2c(c(OC)c1OC)-c1c(cc(OC)c(OC)c1OC)CC(C)C(C)C2 (stereo unspecified) 22.4 µM [activator, single point]
COC(=O)c1ccc(-n2c(C)cc(C(=O)CSc3ccc(NC(C)=O)cc3)c2C)cc1 22.4 µM [activator, single point]
COc1ccc2[nH]cc(CCNc3nc(-c4cccc(C#N)c4)nc4ccccc34)c2c1 22.4 µM [activator, single point]
C/C(=N\NC(=O)c1cc2c(s1)CCC(C)C2)c1cccnc1 (stereo unspecified) 35.5 µM [activator, single point]
CCCS(=O)(=O)NCc1cn2c(C)csc2n1 35.5 µM [inhibitor, single point]
Cc1ccc(NC(=O)CN(C)S(=O)(=O)c2cccc3cccnc23)c(C)c1 0.631 µM [inhibitor, partial curve, poor fit]
Cc1ccc(OCc2cc(C(=O)NC3CCOC3)no2)cc1C (stereo unspecified) 11.2 µM [activator, partial curve]
CC(=O)C1=C(C)NC(SCC(=O)Nc2nc3ccccc3s2)=C(C#N)C1c1ccc(Cl)cc1 (stereo unspecified) 35.5 µM [inhibitor, single point]
CCc1ccc(NC(=O)CSc2nnc(Cc3cccn3C)n2-c2ccc(F)cc2)cc1 0.447 µM [activator, single point]
Cn1cccc1Cc1nnc(SCC(=O)Nc2cccc(Cl)c2)n1-c1ccc(F)cc1 25.1 µM [activator, single point]
COc1ccc(-c2nn(-c3ccccc3)cc2/C=C/C(=O)N2CCN(c3ccccn3)CC2)cc1 5.62 µM [activator, full curve]
COc1ccc([N+](=O)[O-])cc1NC(=O)CCCOc1ccccc1 14.1 µM [activator, single point]
Cc1cc(C(F)(F)F)c2c(N)c(C(=O)NC3CC3)sc2n1 6.31 µM [activator, single point]

Three entries out of the list, ordered by molar mass, ascending.
Potency, inconclusive:
O=S(=O)(NC1CCCCCC1)c1cccc2cccnc12 11.2 µM [inhibitor, single point]
O=C(COc1ccc(Br)cc1Cl)NC(=O)NCc1ccccc1 22.4 µM [activator, single point]
CC(=O)C1=C(C)NC(SCC(=O)Nc2nc3ccccc3s2)=C(C#N)C1c1ccc(Cl)cc1 (stereo unspecified) 35.5 µM [inhibitor, single point]

Following part:

Potency, active:
Cc1ccc(-n2c(-c3ccc(Cl)cc3)n[nH]c2=S)cc1 3.16 µM
COc1cc(OC)cc(C(=O)Nc2nnc(-c3cccnc3)o2)c1 1.41 µM
Cc1cc(C)cc(Nc2ncc3c(n2)CCCC3=O)c1 11.2 µM
CC1(C)C(=O)NC2=C1C(=O)C(=O)c1ccccc12 1 µM and 1.41 µM
CC(=O)Oc1cc2c(cc1Cl)C(c1cccs1)CC1(CC(C)(C)NC(=S)N1)O2 (stereo unspecified) 10 µM
CCc1ccc(/C=N/NC(=O)c2ccc(OC3CCCC3)cc2)s1 11.2 µM
CCNC(=S)N/N=C/c1cc(C)ccc1C 1.78 µM
CC(C)(C)N=C1NN=C(c2ccc(Cl)cc2)CS1 7.08 µM
COC(=O)c1ccccc1NC(=S)NC(NC(=O)c1ccco1)C(Cl)(Cl)Cl (stereo unspecified) 7.94 µM
Cc1cc(C)c(O)c(NC(=S)NC(=O)Cc2ccccc2)c1 10 µM

Activity change, negative = inhibition, inactive:
Cc1cc(O)ccc1Nc1nc(-c2sc(N)nc2C)cs1 -27.5%
Cc1cn([C@@H]2C[C@H](N=[N+]=N)[C@H](CO)O2)c(=O)[nH]c1=O 13.7% [at 16.9 µM]
NC(N)=Nc1cc2ccccc2c2ccccc12 -38.3%
CC(c1nccs1)N(C)C(=O)CCc1nnc(-c2ccc(-c3ccccc3)cc2)o1 (stereo unspecified) -5.3%
CC(=O)c1cccc(-n2nnnc2SCC(=O)Nc2ccccc2N2CCCCC2)c1 -0.941%
Cn1cccc1C(=O)N1CCC2(CC1)CCN(c1ccccn1)CC2 27.6%
CCC1CCCCN1CCCNC(=O)c1ccc2c(c1)NC(=O)CS2 (stereo unspecified) -11.5%
